# Construct, isoform or probe ends are uncertain for at least one entry.
# Tested on: NbGlk1(83-402) (Nicotiana benthamiana)
# Assay: fluorescence anisotropy
# Conditions: DNA annealed in 150 mM NaCl, 15 mM Na citrate, binding buffer, recombinant protein
sequence,measurement,setting,value
CGGATATCCACGGATATCCACGGATATCCACGGATATCCACGGATATCCC (double strand) [FA-5/FA-6 concatenated GGATATCC GLK site duplex],binding result,"with NbDBCP-BD (293-414), binding not altered",binds
same,binding result,"with Rx1(GST-1-144) and NbDBCP-BD (293-414), BD causes no further change",binds
